Article PMC12077264
Residue numbers refer to the chain shown, from its start. Results are given in words; binding and its absence hold for the method and conditions named. Binding can be weak; no strength is given. Tags and fused reporters may be left off the sequences shown. For part of these data: In cells and extracts the contact can be indirect.

By UniProt entry, the sequences of proteins in these tests, tags left out. Where a name states a change or a piece, a line headed by the entry shows the natural chain unless it says otherwise.
UniProt P69490: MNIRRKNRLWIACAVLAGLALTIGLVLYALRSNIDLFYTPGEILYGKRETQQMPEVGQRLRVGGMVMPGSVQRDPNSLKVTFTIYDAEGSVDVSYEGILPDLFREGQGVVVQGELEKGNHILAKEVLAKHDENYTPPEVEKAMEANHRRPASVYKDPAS

Tests used:
[1] = target: T1, GST:CcmC(F103C), in GST:CcmCDE(H130A) (E. coli) (UniProt P0ABM1); assay: pull-down; GST affinity purification via the N-terminal GST tag on CcmC of co-expressed GST:CcmCDE(H130A) or GST:CcmC(D:flag)E(H130A) from E. coli; 5 ug affinity purified protein on SDS-PAGE, Coomassie stain and α-GST, α-CcmE, α-FLAG immunoblots
T1 sequence: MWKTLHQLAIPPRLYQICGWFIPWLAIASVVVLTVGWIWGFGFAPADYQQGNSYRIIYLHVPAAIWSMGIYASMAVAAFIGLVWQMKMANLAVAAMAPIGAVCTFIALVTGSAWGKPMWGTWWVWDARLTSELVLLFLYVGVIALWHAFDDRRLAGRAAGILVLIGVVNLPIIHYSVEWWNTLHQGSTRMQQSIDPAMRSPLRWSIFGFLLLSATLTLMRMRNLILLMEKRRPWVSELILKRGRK

[2] = target: T2, GST:CcmC(L170C), in GST:CcmCDE(H130A) (E. coli) (UniProt P0ABM1); assay: as above
T2 sequence: T1 sequence with C103F, L170C

[3] = target: T3, CcmD:flag (wild type), in GST:CcmC(D:flag)E(H130A) (E. coli) (UniProt P0ABM5); assay: complex retained on SDS-PAGE, immunoblots; ~25 kDa band in GST affinity purified GST:CcmC(D:flag)E(H130A); 12.5% SDS-PAGE, Coomassie, α-FLAG and α-CcmE immunoblots
T3 sequence: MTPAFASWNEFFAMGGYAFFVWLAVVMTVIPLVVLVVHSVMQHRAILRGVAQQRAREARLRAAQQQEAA

Measured: binding

CcmE(H130A) (from UniProt P69490)
binds: [1] | [2] | [3]
